The other results are listed elsewhere or left out.

Chains of the proteins cited; added tags and fusions are not shown. Lines headed by an entry give the natural chain unless they say otherwise; changes in a name come on top.
UniProt Q8TDI0: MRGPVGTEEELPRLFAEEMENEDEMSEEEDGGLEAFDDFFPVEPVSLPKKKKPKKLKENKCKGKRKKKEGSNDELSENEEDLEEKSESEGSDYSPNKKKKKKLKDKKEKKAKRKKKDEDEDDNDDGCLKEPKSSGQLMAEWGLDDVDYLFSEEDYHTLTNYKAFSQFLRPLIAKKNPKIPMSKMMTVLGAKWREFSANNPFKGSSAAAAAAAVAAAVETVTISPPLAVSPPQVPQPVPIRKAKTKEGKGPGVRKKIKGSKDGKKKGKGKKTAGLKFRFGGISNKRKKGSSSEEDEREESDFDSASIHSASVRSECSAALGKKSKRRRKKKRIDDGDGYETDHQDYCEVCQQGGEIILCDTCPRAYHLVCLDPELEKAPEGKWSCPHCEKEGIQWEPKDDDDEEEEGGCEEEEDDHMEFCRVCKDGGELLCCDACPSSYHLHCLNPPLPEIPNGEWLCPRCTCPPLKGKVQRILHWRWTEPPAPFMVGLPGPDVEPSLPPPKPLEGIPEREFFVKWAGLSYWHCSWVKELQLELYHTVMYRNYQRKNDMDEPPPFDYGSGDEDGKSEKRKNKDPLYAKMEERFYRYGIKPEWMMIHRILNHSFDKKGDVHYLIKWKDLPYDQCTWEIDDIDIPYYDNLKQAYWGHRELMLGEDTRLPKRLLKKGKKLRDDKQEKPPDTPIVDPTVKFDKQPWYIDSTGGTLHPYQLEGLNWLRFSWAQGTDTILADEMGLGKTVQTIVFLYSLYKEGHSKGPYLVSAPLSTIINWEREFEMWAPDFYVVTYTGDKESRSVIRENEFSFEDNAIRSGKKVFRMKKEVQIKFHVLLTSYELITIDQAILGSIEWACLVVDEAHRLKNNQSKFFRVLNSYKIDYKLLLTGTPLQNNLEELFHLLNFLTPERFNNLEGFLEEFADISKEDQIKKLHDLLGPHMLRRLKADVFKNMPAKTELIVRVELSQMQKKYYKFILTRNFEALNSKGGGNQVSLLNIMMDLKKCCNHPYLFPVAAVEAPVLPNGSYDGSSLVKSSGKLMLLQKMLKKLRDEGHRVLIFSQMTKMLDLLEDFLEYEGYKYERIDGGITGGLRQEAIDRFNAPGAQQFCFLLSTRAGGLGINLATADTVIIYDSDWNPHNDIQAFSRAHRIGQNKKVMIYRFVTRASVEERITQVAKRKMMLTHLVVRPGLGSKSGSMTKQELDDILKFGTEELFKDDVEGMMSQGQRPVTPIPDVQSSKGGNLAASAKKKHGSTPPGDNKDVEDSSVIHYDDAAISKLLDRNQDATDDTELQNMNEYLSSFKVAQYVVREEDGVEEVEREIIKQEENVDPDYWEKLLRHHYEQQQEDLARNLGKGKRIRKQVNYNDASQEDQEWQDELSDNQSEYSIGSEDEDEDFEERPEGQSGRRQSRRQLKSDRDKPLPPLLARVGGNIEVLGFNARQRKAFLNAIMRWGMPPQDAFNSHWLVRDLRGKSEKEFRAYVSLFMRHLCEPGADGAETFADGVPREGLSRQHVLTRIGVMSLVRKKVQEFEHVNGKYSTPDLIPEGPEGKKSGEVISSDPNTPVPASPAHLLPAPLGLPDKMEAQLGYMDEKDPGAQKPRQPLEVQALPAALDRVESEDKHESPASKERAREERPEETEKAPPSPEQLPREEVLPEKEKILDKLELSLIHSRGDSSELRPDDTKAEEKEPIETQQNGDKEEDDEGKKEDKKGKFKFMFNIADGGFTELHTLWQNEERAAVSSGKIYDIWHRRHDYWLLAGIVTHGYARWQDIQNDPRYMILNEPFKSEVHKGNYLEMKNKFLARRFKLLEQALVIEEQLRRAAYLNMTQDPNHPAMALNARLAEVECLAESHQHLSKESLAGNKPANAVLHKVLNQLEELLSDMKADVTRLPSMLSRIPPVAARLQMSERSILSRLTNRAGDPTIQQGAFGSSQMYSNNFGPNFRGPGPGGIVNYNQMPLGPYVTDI
UniProt Q9P2D1: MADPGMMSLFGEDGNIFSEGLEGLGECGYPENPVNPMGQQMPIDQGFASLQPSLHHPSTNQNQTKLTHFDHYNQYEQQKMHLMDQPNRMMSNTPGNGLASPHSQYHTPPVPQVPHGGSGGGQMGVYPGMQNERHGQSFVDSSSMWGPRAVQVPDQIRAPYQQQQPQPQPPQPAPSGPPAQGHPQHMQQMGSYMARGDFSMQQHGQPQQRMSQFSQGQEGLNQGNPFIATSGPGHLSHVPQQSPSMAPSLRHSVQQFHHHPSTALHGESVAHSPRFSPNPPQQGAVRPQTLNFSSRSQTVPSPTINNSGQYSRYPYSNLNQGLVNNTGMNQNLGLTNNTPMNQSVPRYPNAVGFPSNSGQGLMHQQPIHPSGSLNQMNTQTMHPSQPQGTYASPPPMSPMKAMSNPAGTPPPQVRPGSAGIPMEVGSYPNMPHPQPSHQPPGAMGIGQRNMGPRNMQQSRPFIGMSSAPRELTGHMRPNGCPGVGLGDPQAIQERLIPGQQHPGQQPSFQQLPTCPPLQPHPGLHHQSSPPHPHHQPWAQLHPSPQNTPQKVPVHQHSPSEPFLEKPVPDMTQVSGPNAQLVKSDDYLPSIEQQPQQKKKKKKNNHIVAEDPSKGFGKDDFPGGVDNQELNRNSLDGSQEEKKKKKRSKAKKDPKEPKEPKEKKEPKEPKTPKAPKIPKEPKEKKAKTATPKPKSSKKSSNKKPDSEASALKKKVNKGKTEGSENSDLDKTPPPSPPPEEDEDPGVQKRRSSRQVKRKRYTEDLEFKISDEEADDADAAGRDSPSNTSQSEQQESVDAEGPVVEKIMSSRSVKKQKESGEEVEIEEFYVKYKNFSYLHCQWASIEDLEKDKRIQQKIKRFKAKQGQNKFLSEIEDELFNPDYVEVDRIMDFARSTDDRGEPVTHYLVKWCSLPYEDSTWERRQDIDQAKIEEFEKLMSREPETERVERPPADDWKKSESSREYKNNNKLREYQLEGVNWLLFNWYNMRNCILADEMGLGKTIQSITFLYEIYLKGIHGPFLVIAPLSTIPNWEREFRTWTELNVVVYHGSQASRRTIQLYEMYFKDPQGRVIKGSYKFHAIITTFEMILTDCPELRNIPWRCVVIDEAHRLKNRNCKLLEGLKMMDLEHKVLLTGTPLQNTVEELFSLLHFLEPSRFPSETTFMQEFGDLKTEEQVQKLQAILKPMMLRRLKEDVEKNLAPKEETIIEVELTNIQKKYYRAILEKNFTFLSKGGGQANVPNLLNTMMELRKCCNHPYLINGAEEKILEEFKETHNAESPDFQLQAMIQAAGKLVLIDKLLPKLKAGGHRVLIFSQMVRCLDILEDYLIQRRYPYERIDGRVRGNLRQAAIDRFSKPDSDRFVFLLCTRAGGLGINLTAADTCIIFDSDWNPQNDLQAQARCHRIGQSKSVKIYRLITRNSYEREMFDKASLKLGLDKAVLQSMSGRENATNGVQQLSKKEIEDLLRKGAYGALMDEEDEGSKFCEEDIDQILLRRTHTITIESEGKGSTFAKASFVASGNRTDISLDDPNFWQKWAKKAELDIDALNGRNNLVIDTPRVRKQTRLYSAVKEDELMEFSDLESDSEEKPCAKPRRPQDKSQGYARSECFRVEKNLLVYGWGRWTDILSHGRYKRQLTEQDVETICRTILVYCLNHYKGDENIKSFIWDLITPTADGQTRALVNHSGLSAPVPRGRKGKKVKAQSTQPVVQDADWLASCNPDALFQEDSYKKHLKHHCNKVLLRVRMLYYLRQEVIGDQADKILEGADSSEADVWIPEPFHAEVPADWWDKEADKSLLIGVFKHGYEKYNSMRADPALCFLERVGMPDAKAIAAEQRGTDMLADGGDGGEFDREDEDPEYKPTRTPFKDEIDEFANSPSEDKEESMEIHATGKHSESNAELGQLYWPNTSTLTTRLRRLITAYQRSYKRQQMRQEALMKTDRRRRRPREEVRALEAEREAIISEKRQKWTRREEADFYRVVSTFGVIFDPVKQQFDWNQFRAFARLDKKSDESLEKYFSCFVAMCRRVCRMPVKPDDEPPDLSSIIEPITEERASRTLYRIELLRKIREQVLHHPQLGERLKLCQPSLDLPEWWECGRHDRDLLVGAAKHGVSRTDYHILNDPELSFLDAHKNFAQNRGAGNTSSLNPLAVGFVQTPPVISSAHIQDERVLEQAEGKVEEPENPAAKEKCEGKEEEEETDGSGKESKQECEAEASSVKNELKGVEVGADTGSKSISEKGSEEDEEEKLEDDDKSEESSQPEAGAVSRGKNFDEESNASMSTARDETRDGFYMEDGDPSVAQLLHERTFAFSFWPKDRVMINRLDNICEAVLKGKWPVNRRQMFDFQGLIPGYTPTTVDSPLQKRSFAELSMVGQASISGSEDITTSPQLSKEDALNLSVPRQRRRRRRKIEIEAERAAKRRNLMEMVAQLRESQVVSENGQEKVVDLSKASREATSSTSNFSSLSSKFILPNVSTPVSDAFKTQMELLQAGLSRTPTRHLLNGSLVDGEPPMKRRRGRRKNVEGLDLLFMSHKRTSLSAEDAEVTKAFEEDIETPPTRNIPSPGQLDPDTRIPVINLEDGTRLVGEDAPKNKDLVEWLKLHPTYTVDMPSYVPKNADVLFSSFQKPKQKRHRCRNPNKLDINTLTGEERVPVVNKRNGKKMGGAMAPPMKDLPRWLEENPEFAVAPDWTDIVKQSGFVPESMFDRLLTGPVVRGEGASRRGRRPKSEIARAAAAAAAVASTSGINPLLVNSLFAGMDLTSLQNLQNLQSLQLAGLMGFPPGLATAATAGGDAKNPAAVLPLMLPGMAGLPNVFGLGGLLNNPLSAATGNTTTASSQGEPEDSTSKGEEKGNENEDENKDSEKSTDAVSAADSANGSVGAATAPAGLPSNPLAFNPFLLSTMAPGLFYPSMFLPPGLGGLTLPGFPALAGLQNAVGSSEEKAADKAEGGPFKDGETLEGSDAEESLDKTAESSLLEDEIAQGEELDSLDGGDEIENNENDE
UniProt Q86WJ1: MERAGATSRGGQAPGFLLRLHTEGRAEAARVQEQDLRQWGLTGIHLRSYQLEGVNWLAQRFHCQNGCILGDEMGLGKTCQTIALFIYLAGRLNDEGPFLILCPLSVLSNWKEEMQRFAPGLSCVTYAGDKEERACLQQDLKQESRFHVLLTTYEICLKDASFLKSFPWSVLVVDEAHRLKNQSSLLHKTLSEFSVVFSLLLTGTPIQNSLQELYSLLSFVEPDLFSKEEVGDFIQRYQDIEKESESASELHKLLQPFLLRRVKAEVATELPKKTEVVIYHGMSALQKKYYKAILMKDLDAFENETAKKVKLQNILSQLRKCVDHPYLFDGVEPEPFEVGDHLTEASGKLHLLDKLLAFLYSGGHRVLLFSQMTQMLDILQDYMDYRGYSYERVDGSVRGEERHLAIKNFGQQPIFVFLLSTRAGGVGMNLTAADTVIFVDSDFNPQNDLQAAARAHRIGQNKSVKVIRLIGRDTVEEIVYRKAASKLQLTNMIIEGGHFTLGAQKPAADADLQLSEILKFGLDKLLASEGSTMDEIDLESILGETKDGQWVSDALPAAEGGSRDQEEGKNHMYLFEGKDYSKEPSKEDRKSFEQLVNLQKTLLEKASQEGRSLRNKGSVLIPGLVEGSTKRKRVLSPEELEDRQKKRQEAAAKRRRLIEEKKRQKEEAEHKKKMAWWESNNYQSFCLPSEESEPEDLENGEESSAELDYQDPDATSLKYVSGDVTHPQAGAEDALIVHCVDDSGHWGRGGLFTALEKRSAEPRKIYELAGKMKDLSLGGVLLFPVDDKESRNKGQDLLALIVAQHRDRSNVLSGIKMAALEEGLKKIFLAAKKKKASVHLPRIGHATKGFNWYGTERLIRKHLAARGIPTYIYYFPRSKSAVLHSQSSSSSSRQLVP
UniProt O15111: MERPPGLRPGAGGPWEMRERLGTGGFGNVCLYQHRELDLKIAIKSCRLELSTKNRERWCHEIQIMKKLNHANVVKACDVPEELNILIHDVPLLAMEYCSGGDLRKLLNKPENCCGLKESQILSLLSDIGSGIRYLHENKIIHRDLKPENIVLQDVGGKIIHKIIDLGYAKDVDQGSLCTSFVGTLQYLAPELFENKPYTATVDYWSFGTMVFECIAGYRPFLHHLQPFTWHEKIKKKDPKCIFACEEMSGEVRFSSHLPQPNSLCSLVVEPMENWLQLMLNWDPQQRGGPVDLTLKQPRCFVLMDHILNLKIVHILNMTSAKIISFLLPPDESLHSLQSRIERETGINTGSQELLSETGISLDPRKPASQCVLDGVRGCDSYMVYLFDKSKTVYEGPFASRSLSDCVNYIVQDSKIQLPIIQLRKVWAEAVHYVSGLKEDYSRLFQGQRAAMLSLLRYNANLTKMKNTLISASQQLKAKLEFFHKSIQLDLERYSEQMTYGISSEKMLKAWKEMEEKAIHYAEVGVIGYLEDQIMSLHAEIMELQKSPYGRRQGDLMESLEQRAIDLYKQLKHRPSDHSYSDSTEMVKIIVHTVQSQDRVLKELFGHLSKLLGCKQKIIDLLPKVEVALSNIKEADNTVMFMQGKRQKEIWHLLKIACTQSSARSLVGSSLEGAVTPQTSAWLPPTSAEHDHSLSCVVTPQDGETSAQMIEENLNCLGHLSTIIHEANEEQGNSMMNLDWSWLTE

Compound in the first assay: C1CCN(C1)C(=O)NC2=CC=CC(=C2)NC3=NC=C(C(=N3)NCCC4=CN=CN4)Br
The assay can be described thus: log2 fold change, soluble protein after heating vs DMSO (PISA); higher = thermal stabilisation; K562 lysate, 10 uM; active = over 0.2 and 3.5 SD of the protein, either way, in both replicates (recomputed). In outline: (§1)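 Following dounce homogenisation of K562 pellets in PBS pH 7.4 with 1 mM MgCl2, crude extract at 1 mg/mL protein was incubated for 30 min with 10 μM compound. Aliquots were then heated for 3 min over 48°C-58°C and pooled, NP-40 was added to 0.5% at 4°C, and soluble protein was recovered as the supernatant at 21,000xg for 90 min. Channel-sum-equalised TMTpro 16plex LC-MS/MS quantified this protein. Each value, from duplicates, is a log-two fold change in thermal stability relative to solvent controls.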
Take CHURC1 isoform 2 (UniProt Q8WUH1): the log2 fold change is inactive: -0.017.

For the target CIC (UniProt I3L2J0), the log2 fold change is inactive: 0.005.

In the case of CKAP5 (UniProt Q14008), the log2 fold change is inactive: -0.015.

CHD5 (UniProt Q8TDI0): the log2 fold change is inactive: 0.058.

For the target CHMP7 (UniProt Q8WUX9), the log2 fold change was inactive: -0.036.

As for CHD7 (UniProt Q9P2D1), the log2 fold change was inactive: -0.024.

Consider CHD1L (UniProt Q86WJ1), for which the log2 fold change was inactive: -0.012.

Regarding CHD3 isoform 3 (UniProt Q12873), the log2 fold change was inactive: -0.058.

Take CHKB (UniProt Q9Y259): the log2 fold change is inactive: -0.032.

Regarding CHUK (UniProt O15111), the log2 fold change is inactive: -0.002.

Compound in another assay: C1CN(CCC1(CC2=CC=C(C=C2)Cl)N)C3=NC=NC4=C3C=CN4
The assay is described as above. The method in brief:
as §1
Consider CIT isoform 4 (UniProt O14578), for which the log2 fold change was inactive: 0.056.

On to CHEK1 (UniProt O14757), for which the log2 fold change is inactive: 0.02.

On to CHCHD2P9 (UniProt Q5T1J5), for which the log2 fold change is inactive: 0.088.

For CIRBP (UniProt Q14011), the log2 fold change is inactive: 0.015.

Take CMIP (UniProt Q8IY22): the log2 fold change is inactive: -0.023.

CHKA (UniProt P35790): the log2 fold change is inactive: 0.009.

Regarding CHCHD4 isoform 2 (UniProt Q8N4Q1), the log2 fold change is inactive: 0.009.

Consider CHM (UniProt P24386), for which the log2 fold change was inactive: 0.018.

In the case of CKM (UniProt P06732), the log2 fold change was inactive: 0.038.

Turning to CHID1 (UniProt Q9BWS9), the log2 fold change is inactive: 0.015.

Take CMSS1 (UniProt Q9BQ75): the log2 fold change was inactive: 0.03.

In the case of CHMP4A isoform 2 (UniProt Q9BY43), the log2 fold change is inactive: -0.007.

Take CNBP isoform 4 (UniProt P62633): the log2 fold change was inactive: 0.037.

Consider CHMP5 (UniProt Q9NZZ3), for which the log2 fold change was inactive: -0.018.

As for CMC1 (UniProt Q7Z7K0), the log2 fold change was inactive: 0.01.

Turning to CHCHD3 (UniProt Q9NX63), the log2 fold change is inactive: -0.032.

Turning to CMTM3 (UniProt Q96MX0), the log2 fold change is inactive: -0.089.

As for CIAO2B (UniProt Q9Y3D0), the log2 fold change is inactive: 0.012.

As for CKMT2 (UniProt P17540), the log2 fold change was inactive: -0.036.

As to CHRAC1 (UniProt Q9NRG0), the log2 fold change was inactive: 0.043.

In the case of CISD2 (UniProt Q8N5K1), the log2 fold change is inactive: 0.045.

On to CIZ1 (UniProt Q9ULV3), for which the log2 fold change is inactive: 0.028.

With CHD1 (UniProt O14646), the log2 fold change was inactive: -0.028.

For the target CHURC1 isoform 2 (UniProt Q8WUH1), the log2 fold change is inactive: 0.058.

For CIC (UniProt I3L2J0), the log2 fold change was inactive: -0.04.

CKAP5 (UniProt Q14008): the log2 fold change is inactive: 0.004.

Turning to CHD5 (UniProt Q8TDI0), the log2 fold change was inactive: -0.003.

In the case of CHMP7 (UniProt Q8WUX9), the log2 fold change was inactive: -0.054.

With CHD7 (UniProt Q9P2D1), the log2 fold change was inactive: 0.02.

As to CHD1L (UniProt Q86WJ1), the log2 fold change was inactive: 0.013.

On to CHD3 isoform 3 (UniProt Q12873), for which the log2 fold change is inactive: 0.005.

Consider CHKB (UniProt Q9Y259), for which the log2 fold change is inactive: 0.083.

On to CHUK (UniProt O15111), for which the log2 fold change is inactive: -0.002.

Compound in the next assay: C1COCCN1CCN2C3=CC=CC=C3N=C2NC(=O)C4=CC(=CC=C4)[N+](=O)[O-] [IRAK-1-4 Inhibitor I]
Described as above. The method in brief: as §1
Regarding CIT isoform 4 (UniProt O14578), the log2 fold change is inactive: 0.001.

With CHEK1 (UniProt O14757), the log2 fold change was inactive: -0.011.

Turning to CHCHD2P9 (UniProt Q5T1J5), the log2 fold change was inactive: 0.068.

On to CIRBP (UniProt Q14011), for which the log2 fold change is inactive: 0.012.

Turning to CMIP (UniProt Q8IY22), the log2 fold change was inactive: -0.011.

For the target CHKA (UniProt P35790), the log2 fold change is inactive: -0.037.

Consider CHCHD4 isoform 2 (UniProt Q8N4Q1), for which the log2 fold change was inactive: 0.016.

As for CHM (UniProt P24386), the log2 fold change is inactive: 0.049.

For CKM (UniProt P06732), the log2 fold change is inactive: 0.044.

Consider CHID1 (UniProt Q9BWS9), for which the log2 fold change is inactive: -0.004.

On to CMSS1 (UniProt Q9BQ75), for which the log2 fold change is inactive: -0.035.

For the target CHMP4A isoform 2 (UniProt Q9BY43), the log2 fold change is inactive: -0.016.

With CNBP isoform 4 (UniProt P62633), the log2 fold change is inactive: -0.074.

Turning to CHMP5 (UniProt Q9NZZ3), the log2 fold change is inactive: -0.024.

As for CMC1 (UniProt Q7Z7K0), the log2 fold change is inactive: -0.02.

For CHCHD3 (UniProt Q9NX63), the log2 fold change is inactive: 0.026.

Take CMTM3 (UniProt Q96MX0): the log2 fold change was inactive: -0.012.

With CIAO2B (UniProt Q9Y3D0), the log2 fold change is inactive: -0.004.

Regarding CKMT2 (UniProt P17540), the log2 fold change is inactive: 0.023.

In the case of CHRAC1 (UniProt Q9NRG0), the log2 fold change was inactive: 0.086.

As for CISD2 (UniProt Q8N5K1), the log2 fold change was inactive: 0.047.

For CIZ1 (UniProt Q9ULV3), the log2 fold change was inactive: 0.033.

Take CHD1 (UniProt O14646): the log2 fold change was inactive: 0.032.

For the target CHURC1 isoform 2 (UniProt Q8WUH1), the log2 fold change is inactive: -0.002.

Turning to CIC (UniProt I3L2J0), the log2 fold change was inactive: 0.04.

CKAP5 (UniProt Q14008): the log2 fold change was inactive: 0.001.

Regarding CHD5 (UniProt Q8TDI0), the log2 fold change was inactive: -0.016.

Regarding CHMP7 (UniProt Q8WUX9), the log2 fold change was inactive: -0.014.

On to CHD7 (UniProt Q9P2D1), for which the log2 fold change is inactive: 0.

As to CHD1L (UniProt Q86WJ1), the log2 fold change is inactive: 0.003.

Turning to CHD3 isoform 3 (UniProt Q12873), the log2 fold change was inactive: -0.032.

As to CHKB (UniProt Q9Y259), the log2 fold change is inactive: 0.029.

Take CHUK (UniProt O15111): the log2 fold change is inactive: -0.044.
